Results: patent US12491217B2, “Compositions and methods for promoting healthy neural development in an unborn baby” (The Regents of the University of California, priority 2019, dated 2025)
Where a SMILES comes first, the peptide text is derived from it.

Assay: Metabolomics of fetal brain at E14.5
Format: in vivo, C57Bl/6J mice
[1] = metabolite level in E14.5 fetal brain, ANOVA contrast ABX/SPF
[2] = metabolite level in E14.5 fetal brain, ANOVA contrast GF/ABX
[3] = metabolite level in E14.5 fetal brain, ANOVA contrast GF/SPF
[4] = metabolite level in E14.5 fetal brain, ANOVA contrast GF/Sp
[5] = metabolite level in E14.5 fetal brain, ANOVA contrast Sp/ABX
[6] = metabolite level in E14.5 fetal brain, ANOVA contrast Sp/SPF

COC1OC(CO)C(O)C(O)C1O (mixture of isomers) [compound 4246]
fold of change ABX/SPF [1]: 0.62
fold of change GF/ABX [2]: 1.57
fold of change GF/SPF [3]: 0.98
fold of change GF/Sp [4]: 0.68
fold of change Sp/ABX [5]: 2.32
fold of change Sp/SPF [6]: 1.45

CC(O)CC(=O)OC(CC(=O)[O-])C[N+](C)(C)C (single isomer, unassigned) [compound 1482]
fold of change ABX/SPF (E14.5 fetal brain metabolite level, ANOVA contrast ABX vs SPF): 0.82
fold of change GF/ABX (E14.5 fetal brain metabolite level, ANOVA contrast GF vs ABX): 1.39
fold of change GF/SPF (E14.5 fetal brain metabolite level, ANOVA contrast GF vs SPF): 1.14
fold of change GF/Sp (E14.5 fetal brain metabolite level, ANOVA contrast GF vs Sp): 1.44
fold of change Sp/ABX (E14.5 fetal brain metabolite level, ANOVA contrast Sp vs ABX): 0.96
fold of change Sp/SPF (E14.5 fetal brain metabolite level, ANOVA contrast Sp vs SPF): 0.79

NCC(=O)O [compound 1]
fold of change ABX/SPF [1]: 0.82
fold of change GF/ABX [2]: 1.15
fold of change GF/SPF [3]: 0.94
fold of change GF/Sp [4]: 1.14
fold of change Sp/ABX [5]: 1.01
fold of change Sp/SPF [6]: 0.83

CC(=O)NCC(=O)O [compound 2]
fold of change ABX/SPF [1]: 1.01
fold of change GF/ABX [2]: 1.37
fold of change GF/SPF [3]: 1.38
fold of change GF/Sp [4]: 1.51
fold of change Sp/ABX [5]: 0.91
fold of change Sp/SPF [6]: 0.91

CN(C)CC(=O)O [compound 5]
fold of change ABX/SPF [1]: 0.69
fold of change GF/ABX [2]: 1.20
fold of change GF/SPF [3]: 0.83
fold of change GF/Sp [4]: 1.09
fold of change Sp/ABX [5]: 1.10
fold of change Sp/SPF [6]: 0.76

C[N+](C)(C)CC(=O)[O-] [compound 6]
fold of change ABX/SPF [1]: 0.66
fold of change GF/ABX [2]: 1.21
fold of change GF/SPF [3]: 0.80
fold of change GF/Sp [4]: 0.98
fold of change Sp/ABX [5]: 1.23
fold of change Sp/SPF [6]: 0.81

N[C@@H](CO)C(=O)O [compound 9]
fold of change ABX/SPF [1]: 1.07
fold of change GF/ABX [2]: 0.97
fold of change GF/SPF [3]: 1.04
fold of change GF/Sp [4]: 1.23
fold of change Sp/ABX [5]: 0.79
fold of change Sp/SPF [6]: 0.85

CC(=O)N[C@@H](CO)C(=O)O [compound 10]
fold of change ABX/SPF [1]: 0.82
fold of change GF/ABX [2]: 1.10
fold of change GF/SPF [3]: 0.90
fold of change GF/Sp [4]: 1.12
fold of change Sp/ABX [5]: 0.98
fold of change Sp/SPF [6]: 0.80

N[C@@H](COP(=O)(O)O)C(=O)O [compound 14]
fold of change ABX/SPF [1]: 1.01
fold of change GF/ABX [2]: 1.51
fold of change GF/SPF [3]: 1.53
fold of change GF/Sp [4]: 1.91
fold of change Sp/ABX [5]: 0.79
fold of change Sp/SPF [6]: 0.80

C[C@@H](O)[C@H](N)C(=O)O [compound 16]
fold of change ABX/SPF [1]: 0.80
fold of change GF/ABX [2]: 1.14
fold of change GF/SPF [3]: 0.92
fold of change GF/Sp [4]: 1.17
fold of change Sp/ABX [5]: 0.98
fold of change Sp/SPF [6]: 0.79

CC(=O)N[C@H](C(=O)O)[C@@H](C)O [compound 17]
fold of change ABX/SPF [1]: 0.84
fold of change GF/ABX [2]: 1.19
fold of change GF/SPF [3]: 1.01
fold of change GF/Sp [4]: 1.12
fold of change Sp/ABX [5]: 1.07
fold of change Sp/SPF [6]: 0.90

CC(O)C(N)C(=O)O (stereo not drawn) [compound 18]
fold of change ABX/SPF [1]: 0.68
fold of change GF/ABX [2]: 1.21
fold of change GF/SPF [3]: 0.82
fold of change GF/Sp [4]: 1.04
fold of change Sp/ABX [5]: 1.16
fold of change Sp/SPF [6]: 0.79

C[C@H](N)C(=O)O [compound 28]
fold of change ABX/SPF [1]: 0.83
fold of change GF/ABX [2]: 1.04
fold of change GF/SPF [3]: 0.86
fold of change GF/Sp [4]: 1.05
fold of change Sp/ABX [5]: 0.99
fold of change Sp/SPF [6]: 0.82

CC(=O)N[C@@H](C)C(=O)O [compound 30]
fold of change ABX/SPF [1]: 0.72
fold of change GF/ABX [2]: 1.16
fold of change GF/SPF [3]: 0.83
fold of change GF/Sp [4]: 1.01
fold of change Sp/ABX [5]: 1.15
fold of change Sp/SPF [6]: 0.82

N[C@@H](CC(=O)O)C(=O)O [compound 34]
fold of change ABX/SPF [1]: 0.81
fold of change GF/ABX [2]: 1.03
fold of change GF/SPF [3]: 0.83
fold of change GF/Sp [4]: 1.01
fold of change Sp/ABX [5]: 1.01
fold of change Sp/SPF [6]: 0.82

CC(=O)N[C@@H](CC(=O)O)C(=O)O [compound 35]
fold of change ABX/SPF [1]: 0.69
fold of change GF/ABX [2]: 1.06
fold of change GF/SPF [3]: 0.73
fold of change GF/Sp [4]: 0.92
fold of change Sp/ABX [5]: 1.15
fold of change Sp/SPF [6]: 0.79

NC(=O)C[C@H](N)C(=O)O [compound 38]
fold of change ABX/SPF [1]: 0.95
fold of change GF/ABX [2]: 1.01
fold of change GF/SPF [3]: 0.96
fold of change GF/Sp [4]: 1.01
fold of change Sp/ABX [5]: 1.00
fold of change Sp/SPF [6]: 0.95

CC(=O)N[C@@H](CC(N)=O)C(=O)O [compound 39]
fold of change ABX/SPF [1]: 0.87
fold of change GF/ABX [2]: 1.13
fold of change GF/SPF [3]: 0.98
fold of change GF/Sp [4]: 1.07
fold of change Sp/ABX [5]: 1.06
fold of change Sp/SPF [6]: 0.92

NC(=O)C(O)C(N)C(=O)O (stereo not drawn) [compound 40]
fold of change ABX/SPF [1]: 0.55
fold of change GF/ABX [2]: 1.03
fold of change GF/SPF [3]: 0.56
fold of change GF/Sp [4]: 0.81
fold of change Sp/ABX [5]: 1.27
fold of change Sp/SPF [6]: 0.69

N[C@@H](CCC(=O)O)C(=O)O [compound 41]
fold of change ABX/SPF [1]: 0.84
fold of change GF/ABX [2]: 1.03
fold of change GF/SPF [3]: 0.86
fold of change GF/Sp [4]: 0.99
fold of change Sp/ABX [5]: 1.04
fold of change Sp/SPF [6]: 0.87

NC(=O)CC[C@H](N)C(=O)O [compound 42]
fold of change ABX/SPF [1]: 0.70
fold of change GF/ABX [2]: 0.96
fold of change GF/SPF [3]: 0.67
fold of change GF/Sp [4]: 0.78
fold of change Sp/ABX [5]: 1.23
fold of change Sp/SPF [6]: 0.86

NC(=O)CCC(=O)C(=O)O [compound 43]
fold of change ABX/SPF [1]: 0.77
fold of change GF/ABX [2]: 0.81
fold of change GF/SPF [3]: 0.63
fold of change GF/Sp [4]: 0.34
fold of change Sp/ABX [5]: 2.42
fold of change Sp/SPF [6]: 1.87

CC(=O)N[C@@H](CCC(=O)O)C(=O)O [compound 44]
fold of change ABX/SPF [1]: 0.76
fold of change GF/ABX [2]: 1.00
fold of change GF/SPF [3]: 0.75
fold of change GF/Sp [4]: 0.98
fold of change Sp/ABX [5]: 1.02
fold of change Sp/SPF [6]: 0.77

NC(CC(O)C(=O)O)C(=O)O (stereo not drawn) [compound 47]
fold of change ABX/SPF [1]: 1.04
fold of change GF/ABX [2]: 1.01
fold of change GF/SPF [3]: 1.05
fold of change GF/Sp [4]: 1.65
fold of change Sp/ABX [5]: 0.61
fold of change Sp/SPF [6]: 0.64

COC(=O)CC[C@H](N)C(=O)O [compound 50]
fold of change ABX/SPF [1]: 0.71
fold of change GF/ABX [2]: 1.19
fold of change GF/SPF [3]: 0.84
fold of change GF/Sp [4]: 1.02
fold of change Sp/ABX [5]: 1.16
fold of change Sp/SPF [6]: 0.82

CC(=O)N[C@@H](CC(=O)O)C(=O)N[C@@H](CCC(=O)O)C(=O)O [compound 52] (Ac-Asp-Glu-OH)
fold of change ABX/SPF [1]: 0.80
fold of change GF/ABX [2]: 0.93
fold of change GF/SPF [3]: 0.74
fold of change GF/Sp [4]: 0.88
fold of change Sp/ABX [5]: 1.05
fold of change Sp/SPF [6]: 0.84

O=C(O)CCC(NC(=O)C(O)(CC(=O)O)CC(=O)O)C(=O)O (stereo not drawn) [compound 53]
fold of change ABX/SPF [1]: 0.85
fold of change GF/ABX [2]: 0.95
fold of change GF/SPF [3]: 0.81
fold of change GF/Sp [4]: 0.92
fold of change Sp/ABX [5]: 1.04
fold of change Sp/SPF [6]: 0.88
